# Assay results reported in the supplement of paper PMC3334620.
# Whole data set: some 33,000 sequences, median “E-score (-0.5 to 0.5)” near -0.0034, cut for the highest 2% near 0.25. Some of the results follow.
# Biological target: T1, Yap3 (UniProt P38749)
# T1 sequence: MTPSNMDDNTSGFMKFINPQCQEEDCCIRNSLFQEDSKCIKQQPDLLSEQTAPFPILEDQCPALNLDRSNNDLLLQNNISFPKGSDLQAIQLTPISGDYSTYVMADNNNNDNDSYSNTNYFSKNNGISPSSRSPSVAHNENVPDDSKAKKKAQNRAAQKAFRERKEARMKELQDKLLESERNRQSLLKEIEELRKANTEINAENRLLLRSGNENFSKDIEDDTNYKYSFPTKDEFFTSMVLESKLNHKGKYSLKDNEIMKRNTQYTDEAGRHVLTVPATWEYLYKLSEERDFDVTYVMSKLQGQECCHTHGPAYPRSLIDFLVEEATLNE
# Assay: PBM E-score (8-mer binding enrichment) (E-score (-0.5 to 0.5)); higher = stronger / more preferred TF binding
# Conditions: protein concentration: 100 nM; construct: GST-full length
# Protocol: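 Universal 'all 10-mer' protein binding microarrays (Agilent AMADID 015681) probed with GST-tagged S. cerevisiae TFs (full-length or DBD) made by in vitro transcription/translation (PURExpress), about 100-200 nM. Bound TF was detected with fluorescent anti-GST. Each ungapped 8-mer (which stands for itself and its reverse complement) is scored by the PBM enrichment score (E-score), a modified Wilcoxon-Mann-Whitney statistic from -0.5 to +0.5, computed with the Universal PBM Analysis Suite. Scale: above 0.35 generally sequence-specific binding.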
row,Sequence,PBM E-score
1,CTAGTAAC,0.0477
2,ATCCTCCG,-0.0942
3,CAGCGCGG,0.0182
4,ATCGTCGC,0.092
5,TACGCCGA,-0.0911
6,CTCACGGC,-0.104
7,ATTGTACC,0.111
8,CACAGCTG,-0.193
9,GGTACCGA,-0.289
10,CAGTTAGG,0.149
11,AGTCTTAG,-0.184
12,AAATAGGG,0.0321
13,GGCACTTA,-0.0403
14,CGCACTGC,-0.032
15,CTCGGTGC,-0.0111
16,AAATTTAC,0.219
17,GAAAAACC,0.136
18,AGCTCAGC,-0.214
19,AACCATCG,0.143
20,ACGCAGGG,-0.0779
21,CGTTTAAG,-0.0721
22,AAGCGGGG,-0.0456
23,GTGAATCA,-0.0143
24,AACTGTAC,0.107
25,AGACGTCT,-0.197

row,Sequence,PBM E-score
1,AAATGTGT,0.216
2,AGCGAATA,0.1
3,CTGATGTA,0.243
4,TCAATGCA,-0.118
5,GAACAGTA,0.115
6,GGGTAAAC,0.0445
7,CAGAATGG,0.074
8,ACCAGGGT,-0.182
9,ACCTTGAG,0.0293
10,CCGGCCCC,-0.406
11,GTTATACA,0.167
12,CGCGGGTC,-0.073
13,ACGGGGAG,-0.29
14,CGTAACAG,0.152
15,ATTCAAAG,0.0234
16,CGGAGCAC,-0.181
17,CGCAAGGC,0.0335
18,ATCCTACA,-0.183
19,ATCATGCG,-0.0578
20,AACTCCGC,-0.123
21,CAGACCTA,-0.0581
22,CCTTAGTA,0.0819
23,CAACGACA,0.141
24,AAATTCAC,0.105
25,AGTTCGAG,0.137

row,Sequence,PBM E-score
1,AACGTCAC,-0.0539
2,GGATTATA,0.101
3,GGGCGCAA,-0.215
4,GGCTAAAC,0.0162
5,TGGTTGAA,0.0526
6,GATAAATA,0.233
7,CACCGAAG,-0.0164
8,ATGATCCC,-0.0584
9,GGATCACA,0.0855
10,CCCCAGGG,-0.433
11,TAGAGAGA,0.0923
12,GTGATAAC,0.0818
13,ACAAATCA,0.229
14,AGAGATGG,0.0996
15,ATGCCCAC,0.016
16,CGGTTCTA,0.00416
17,CTCCAACC,0.0793
18,CACCGCCA,0.081
19,GCGTCGCC,0.0166
20,CAATTGCC,0.0211
21,CGGGGGCA,-0.27
22,CAACCAAG,-0.0235
23,CTCGAAAA,-0.00194
24,CAAAAACG,0.136
25,CAGACCCC,-0.385

row,Sequence,PBM E-score
1,ACCTCTGG,-0.158
2,AAACCCTA,0.0287
3,AGATACCC,0.0841
4,CGCTCATA,-0.0459
5,AAGCCCGG,-0.138
6,AGTAACAG,0.201
7,GACGAATC,0.04
8,GAACGATA,0.0944
9,ACATGAGC,-0.113
10,ACGTCTGG,0.00718
11,GTGACGCA,-0.0177
12,AAGTATAC,0.266
13,ACTTGAAC,0.0487
14,ACTCCCCC,-0.304
15,ACCAGTCT,-0.165
16,CACTAATG,0.131
17,ACTCTTCA,0.0944
18,CGTCTCTC,-0.0113
19,ACCGGTTG,-0.0905
20,GATATGAA,0.214
21,AGACGGAG,-0.0645
22,ATACGCTA,0.0444
23,CCGTTACC,-0.0214
24,CACAGCGA,0.07
25,CATAATGG,-0.033

row,Sequence,PBM E-score
1,GTCGAATA,0.0822
2,ATCTTAGA,0.147
3,ATTATGTA,0.267
4,GATCAAAA,0.113
5,CGACGTTC,-0.309
6,AAACGAAG,0.14
7,ATTCCTAA,0.0365
8,CTCTGCAA,-0.0711
9,TGTCATAA,0.102
10,GCGACTCC,-0.271
11,GTAAAAAA,0.229
12,TGGCTAAA,-0.0987
13,GTGCGCCA,-0.245
14,AGTCTGGG,-0.323
15,AACACGGC,-0.0796
16,AACTCTTG,-0.0633
17,AGACAGAT,0.134
18,AGCAATGC,0.119
19,AGATGGGA,-0.0021
20,AGTCGATA,0.111
21,ATAAGGCC,-0.0503
22,ACGGTGTA,0.102
23,CGTCCCCC,-0.368
24,AGTCGTTA,0.0841
25,ATCTGATG,-0.00759

# In another format: entries from further up
row	Sequence	PBM E-score
1	AAATGTGT	0.216
12	GTGATAAC	0.0818
6	AAACGAAG	0.14
13	GTGCGCCA	-0.245
20	AGTCGATA	0.111

# Next results:

row,Sequence,PBM E-score
1,CCTTGTTA,-0.00354
2,ATACCATC,0.119
3,GCGGAAAC,-0.153
4,ATAATCGG,0.209
5,GAGCGATA,-0.0584
6,ACAGTGCG,-0.0324
7,ACTCCTCG,0.0333
8,CTAGTTGC,0.0394
9,GCGCACAA,0.141
10,AAGAATAT,0.0717
11,GACTACAA,-0.0468
12,ACGAGCGA,0.0274
13,ATCTCGAC,-0.0052
14,CGCAGATA,-0.0505
15,GAATGGCA,-0.0644
16,CAGGAGGA,-0.292
17,GTATCTAA,0.18
18,TCCGTACA,0.149
19,TAACGAAA,0.211
20,AGGCAGTA,-0.121
21,GGCAACAC,0.0316
22,GAACATAC,0.122
23,ACAAAAAC,0.143
24,CCCAATCG,0.0535
25,ACCAGCGT,-0.181

row,Sequence,PBM E-score
1,CACAAGCA,-0.111
2,GGGCAACA,0.0486
3,ATTCAAGG,-0.0344
4,AACTGAGA,0.018
5,GATGATAA,0.207
6,CCCCCGAG,-0.315
7,AGGCCCGG,-0.402
8,AGAAGTTA,0.0328
9,ATCATGGG,-0.0421
10,AGCGTACA,-0.0567
11,ATCACGCG,0.234
12,AAGGGCCC,-0.131
13,ATACTAGG,0.0668
14,AAAAGGTG,0.0429
15,GGGGTTAA,-0.0228
16,CGGACGGA,-0.113
17,AGTGACGA,-0.0265
18,AGAGACAT,0.076
19,AGAGTTTA,0.106
20,CACGTCCG,-0.0921
21,GATCATCC,-0.105
22,CCCGCACC,-0.15

# A different layout for part of the listing above:
row	Sequence	PBM E-score
8	AGAAGTTA	0.0328
9	ATCATGGG	-0.0421
14	AAAAGGTG	0.0429
16	CGGACGGA	-0.113
21	GATCATCC	-0.105
